Results reported in PMC4231769.
No constants are given. Whether binding was seen depends on the method and setting.

The chains behind the UniProt entries cited, without tags or fusion partners. Residues count along the entry.
UniProt Q9UBT6, residues 19-526: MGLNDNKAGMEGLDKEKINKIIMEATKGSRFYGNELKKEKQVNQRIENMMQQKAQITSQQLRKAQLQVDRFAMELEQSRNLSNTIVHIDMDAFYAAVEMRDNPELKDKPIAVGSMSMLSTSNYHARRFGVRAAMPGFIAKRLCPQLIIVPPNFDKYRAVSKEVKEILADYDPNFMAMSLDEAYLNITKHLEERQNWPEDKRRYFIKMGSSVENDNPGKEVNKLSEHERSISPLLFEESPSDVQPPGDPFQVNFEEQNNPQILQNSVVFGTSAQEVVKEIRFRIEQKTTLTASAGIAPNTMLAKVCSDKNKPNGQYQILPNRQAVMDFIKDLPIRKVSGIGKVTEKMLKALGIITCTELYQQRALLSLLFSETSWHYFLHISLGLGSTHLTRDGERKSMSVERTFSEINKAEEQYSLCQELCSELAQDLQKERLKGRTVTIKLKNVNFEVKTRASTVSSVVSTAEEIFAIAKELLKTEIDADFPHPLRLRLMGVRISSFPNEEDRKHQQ
UniProt Q14191, residues 500-949: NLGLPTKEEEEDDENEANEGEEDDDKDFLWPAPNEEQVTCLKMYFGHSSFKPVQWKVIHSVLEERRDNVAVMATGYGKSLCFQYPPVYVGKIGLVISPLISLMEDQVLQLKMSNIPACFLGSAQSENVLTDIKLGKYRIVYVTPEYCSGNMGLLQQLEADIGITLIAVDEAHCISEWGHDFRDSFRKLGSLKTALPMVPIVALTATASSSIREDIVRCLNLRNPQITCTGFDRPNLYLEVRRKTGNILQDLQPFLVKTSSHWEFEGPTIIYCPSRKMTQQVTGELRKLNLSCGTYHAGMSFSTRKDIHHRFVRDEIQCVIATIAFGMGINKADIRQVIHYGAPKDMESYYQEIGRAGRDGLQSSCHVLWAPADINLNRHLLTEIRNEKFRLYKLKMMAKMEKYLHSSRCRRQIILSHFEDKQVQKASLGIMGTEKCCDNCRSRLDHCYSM

Target: GST-tagged hpol κ^19-526 (human DNA polymerase kappa catalytic core) (human) (UniProt Q9UBT6)
Test: pull-down; GST-hpol κ^19-526 on glutathione Sepharose beads (~1200 pmol), WRN construct 1 μM (~500 pmol) in 500 μl; 25 mM HEPES pH 7.5, 0.1 M NaCl, 10% glycerol, 5 mM β-ME; 16 h at 4°C; Coomassie-stained SDS-PAGE; specific binding = fraction bound to GST-hpol κ beads divided by fraction bound to GST-coated beads; both purified

## WRN^500-949 ATPase domain (from UniProt Q14191 500-949) (domain or fragment)
  binding: no binding (tested: 1 μM)
